Test results reported in PMC10754819.

Chains of the proteins cited; added tags and fusions are not shown. Lines headed by an entry give the natural chain unless they say otherwise; changes in a name come on top.
UniProt Q7K3M5: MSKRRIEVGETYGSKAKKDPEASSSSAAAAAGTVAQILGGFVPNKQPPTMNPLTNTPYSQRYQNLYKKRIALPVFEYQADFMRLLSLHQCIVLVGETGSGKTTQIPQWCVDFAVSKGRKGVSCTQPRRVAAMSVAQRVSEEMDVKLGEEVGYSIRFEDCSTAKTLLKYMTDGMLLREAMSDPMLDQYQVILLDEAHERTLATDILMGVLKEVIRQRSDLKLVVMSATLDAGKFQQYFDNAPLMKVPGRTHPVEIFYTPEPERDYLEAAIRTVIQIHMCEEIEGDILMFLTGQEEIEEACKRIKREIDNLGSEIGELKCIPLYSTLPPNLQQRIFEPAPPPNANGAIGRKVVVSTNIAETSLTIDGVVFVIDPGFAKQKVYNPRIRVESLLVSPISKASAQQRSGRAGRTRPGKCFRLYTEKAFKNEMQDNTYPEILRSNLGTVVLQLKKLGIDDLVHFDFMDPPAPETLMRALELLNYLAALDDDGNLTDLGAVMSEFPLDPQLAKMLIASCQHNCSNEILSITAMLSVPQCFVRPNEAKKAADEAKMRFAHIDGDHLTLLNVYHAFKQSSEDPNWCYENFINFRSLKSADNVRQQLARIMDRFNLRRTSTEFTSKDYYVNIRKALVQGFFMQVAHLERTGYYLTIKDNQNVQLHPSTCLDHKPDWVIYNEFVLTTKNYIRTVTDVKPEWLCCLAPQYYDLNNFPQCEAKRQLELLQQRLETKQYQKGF
UniProt A0A0B4LFP5: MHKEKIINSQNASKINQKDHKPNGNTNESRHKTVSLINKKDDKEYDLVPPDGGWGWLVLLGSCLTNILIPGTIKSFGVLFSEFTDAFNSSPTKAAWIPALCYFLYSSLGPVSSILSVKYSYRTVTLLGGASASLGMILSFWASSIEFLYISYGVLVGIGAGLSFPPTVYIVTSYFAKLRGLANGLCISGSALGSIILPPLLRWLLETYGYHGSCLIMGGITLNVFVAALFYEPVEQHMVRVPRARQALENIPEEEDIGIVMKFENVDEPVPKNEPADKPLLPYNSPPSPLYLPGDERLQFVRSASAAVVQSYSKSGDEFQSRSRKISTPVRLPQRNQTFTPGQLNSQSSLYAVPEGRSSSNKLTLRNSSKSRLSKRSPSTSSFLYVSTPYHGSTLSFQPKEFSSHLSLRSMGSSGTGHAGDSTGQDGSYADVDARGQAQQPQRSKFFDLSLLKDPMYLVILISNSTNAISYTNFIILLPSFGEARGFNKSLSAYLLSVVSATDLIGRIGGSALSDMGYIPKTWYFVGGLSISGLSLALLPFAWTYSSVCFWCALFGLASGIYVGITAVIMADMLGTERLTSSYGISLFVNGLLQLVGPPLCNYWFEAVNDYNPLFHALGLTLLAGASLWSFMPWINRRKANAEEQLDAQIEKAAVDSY
UniProt P12982: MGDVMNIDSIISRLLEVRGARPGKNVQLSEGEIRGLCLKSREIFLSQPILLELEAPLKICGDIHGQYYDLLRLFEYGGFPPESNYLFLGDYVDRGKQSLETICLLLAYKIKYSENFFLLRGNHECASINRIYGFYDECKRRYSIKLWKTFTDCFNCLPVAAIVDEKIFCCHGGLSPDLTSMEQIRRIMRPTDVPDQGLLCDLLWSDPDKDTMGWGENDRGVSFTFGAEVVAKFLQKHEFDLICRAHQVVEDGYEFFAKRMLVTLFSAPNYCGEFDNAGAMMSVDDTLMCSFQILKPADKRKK

Target: T1, dTrmt10A-FLAG-HA (Drosophila Trmt10A, CG14618) (Drosophila) (UniProt Q9VR56)
T1 sequence: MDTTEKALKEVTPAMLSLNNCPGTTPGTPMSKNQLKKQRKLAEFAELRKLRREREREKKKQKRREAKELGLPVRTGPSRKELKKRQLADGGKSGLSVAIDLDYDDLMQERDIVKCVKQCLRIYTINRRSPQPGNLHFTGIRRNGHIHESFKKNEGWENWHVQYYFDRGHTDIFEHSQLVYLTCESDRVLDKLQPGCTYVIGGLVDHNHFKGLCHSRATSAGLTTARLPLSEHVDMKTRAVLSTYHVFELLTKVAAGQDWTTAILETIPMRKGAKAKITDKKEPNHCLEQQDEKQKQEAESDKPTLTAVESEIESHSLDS
Assay: affinity purification with mass spectrometry; dTrmt10A-FLAG-HA immunoprecipitated from adult fly head lysates (80 heads per replicate, n = 3) with anti-HA antibody immobilised on agarose resin, mouse IgG as control; overnight at 4 °C; LC-MS/MS, MaxQuant

- binding: binds
Molecule: Dhx15 (from UniProt Q7K3M5 1-729)

- binding: binds
Molecule: twin

- binding: binds
Molecule: hrm (from UniProt A0A0B4LFP5)

- binding: binds
Molecule: Pp1-87B (from UniProt P12982 1-302)

- binding: binds
Molecule: CG18680

- binding: binds
Molecule: CG9953 (from UniProt Q9VS02)

- binding: binds
B1: Atx2 (protein, UniProt Q8SWR8 1-1084)
chain: MNNNSKRKTRPTGGGASGGISRYNSNDNSLRPTNNKAGAGGGNGGAAVRPSAQGVYNNTFFMHSATALVGSVVEVRLRSGNIYEGVFRTFSGNFDIALELPACIKSKNLPEEGKVPKHIIFPADTVVTIVAKDFDSQYATAGAFQTDGAISDKCNGARPDEKELEPWDSGANGDIDIELDSAANGWDPNEMFRKNENTFGVTSTFDDSLASYTVPLDKGDSLEFKEAEAKAEKLAAEIENNPTCRDRLDLENGDEEALFAAVERPSTEQDQRGDRGDRERNDRDREREERDRDRDRDRGNKPRGAGDFQLRETMSSDRYITKQTRSITGPQLSHVGMSSQGSGRDRDTRGDGSMMMQSGGGSGQGGSTQSTAALMLAGGLKGVGPAPSANASADSSSKYSGGSMVKRKTVPQGGKVMRNNVPTGGSNVSVSQGGNGNSVGQNKGGYQPSMGMPSQYSYQGNSQIMHGSSQYRNQSHMGGANKLNGDSNANTNKPLPQRQMRQYQGSQSNSSLNYGGEPQSLGKPVHGSHGGHPGQNSNSPPLQTAGPQQQQQQQQQQQQQQQQQQPPQQQQHQNIQPQGQNTQPARQVRTRDNQMQELRQFGQDFQLAPSNTSPPQQQQQQQQQQQQHQVQQQQQRALQQSASPPQQQQQQQQQQQHVVLHQVPQTHLHQAALSQPHYVPQQQPQQAPLPQQQHVPHHMQQKAQQQQLVETQHQHVQKQHQSQPQVQQPPPQLLQDPSQQPLPIYHTMPPPQTSPVVVTSPVLLEQPPPQPMPVVQQQQTQQLATPKPEVSPAPPSSNTTTPTGIASTPTAGVIASAGSEKTTPAAPTPTSNSATVPTGTAATAGGATGTTPVVKKHVLNPSAKPFTPRGPSTPNPSRPHTPQTPVPMTNIYTTTGGHVPPAANQPIYVMQPQHPFPPQTHPQAGQPPRLRRSNYPPMAASQMHVSASAATGQPLITAGPIPQFIQYGHAPHQQQFQSHTYAPMQMRVYPDQPQQLQFMTQTPQSTTPSPGQPHQQFHPPPQPSPAGGGPQPAFTPPTQAATYQLMCVHPQSLLANHYFPPPTPQHPQQNQQQYQIVMQQHQPQ

- binding: binds
B2: eIF3a (protein, UniProt Q9VN25 1-1140)
chain: MARYTQRPENALKRANEFIEVGKPLRALDTLQEVFRNKRWNYAYSETVIEPLMFKYLYLCVELKKSHIAKEGLFQYRNMFQLVNVNSLENVIRGYLKMAEEHTEAAQAQSSAAVAVLELDDLDNIATPESILMSAVCGEDAQDRSDRTILLPWVKFLWESYCQCLELLRVNTHCEALYHDIARMAFQFCLKYNRKSEFRRLCDKLRKHLEDICKSSNQTTGVSINKVETQQLCLDTRLYLLDSAIQMELWQEAYKAIEDIHGLMALSKKTPVPKTMANYYQKLAMVFSKAGNQLFHAAALLKLFQLTRELKKNLTKDDLQRMAAHVLLATLSIPLPSAHPEFDRFIEADKSPLEKAQKLAVLLGLPQPPTRVSLIREVVRLNVPQLVSEDFRNLYNWLEVDFNPLNLCKRIQSIVDFIENGPENALLTPYIQSLKDVTIMRLIRQISQVYESIKFQRLLQLASFCNIFELEKLLVESVRHNDMQIRIDHQKNSIYFGTDLTESQREYRPDGPALQSMPSEQIRSQLVNMSTVLTRAVSIVYPNRERDQRAKLRNQMVNHYHEIKDREHQRILQRQKIIEDRKEYIEKQNNAREEEEARRQEEESRKAKLAEQKRLEQEQEERERKRHQNEIQAIREKSLKEKVQQISQTAHGKKMLSKLDEEGIKKLDAEQIAKRESEELQREAKELQSKLKSQEKKIDYFERAKRLEEIPLFEKYLAEKQVKDKEFWEATEKTRIENAIAERKDAVAQQERLKRMYPDRDEFLEALKKERASLYVEKLKKFEAALEAERKKRLADRIIRRREERRQAFLREKEEERLRKEEEIRLAQAAEERAAAEARRLEREAEDEKRRAQYEKQRAKEEEAERKIKEDRDRLSRELASERERTEKDRDTWRPRGGDRPSASNGGSSEWRRAAPAASERNDRGGERIERGGERIERGGERLERGGERIERGGDRDRKDNEGADSSWRVRREPDSQRAAAPKDSGAPQSRDDKWRRGGERDRDFRIDGARRDRDDGPRRDRDDGPRRDRDDERGGFRRADGARRTDEPQRETGGNWRDAPRHADRETRRPAERRDRDVRETRGDQRGSAPKEAASGGVGGNWRTAPATREEKPAAKRDQAQEKENKAGDDGEWTSVKRR

- binding: binds
B3: Rga (protein, UniProt Q94547 1-585)
chain: MANLNFQQPPRSIANAALAGRTTGGFGGSSLAGHVTPTSGMFQTDFANSYPGTANYGQAPQQQQQQQQQPQLSPNRNAQLSVGGPAISSGNRNANLFGQRQFVERRAMQGLGSGPMSNMGNFMQTGRGGYGTGGGGGGPLNNFHVFGGGGGSDTSTPALLDPTEFPSLTNARGQNDQTLPQSNPLQPPGSKPYGNFFTSFGMVKQPTSEQSEFTMSNEDFPALPGTQNSDGTTNAVGSVAGTGGSGGASTENHLDGTEKPMNSIVVSGSASGSSGSNVGVVGGNGLGAVGSGIGGLAVGGGGGAGSSGGGGVGGNAASGVVGGSHVGLVGSNSGIGGVNSVPNSNAMMGVGGGLGSGSGSSGSGAGGEHLNDNSSNDKLVKSGVQTSPDGKVTNIPATMVNNQFGMVGLLTFIRAAETDPNLVTLSLGTDLTGLGLNLNSQESLHTTFAGPFVAQPCRAQDVEFNVPPEYLINFAIRDKLTAPVLKKLQEDLLFFLFYTNIGDMMQLMAAAELHSREWRYHVEEKIWITRIPGIDQYEKNGTKERGTFYYFDAQSWKRLSKVFQIDPEKLDKCPNISAFMNGQSV

These are yes or no findings as the source states them, for the method shown. In cells and extracts the contact can be indirect. Here binding means that the protein was enriched with, or labelled near, the bait; the list need not be complete. Tags and fused reporters may be left off the sequences shown. One block for each molecule: values may come before it.
